Experimental data: PubChem BioAssay AID652272 (Drosophila RNAi Screening Center, 2013)

Screen: 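Genome-wide knock-down search for components of Hedgehog signalling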 (primary screen)
Cell system: Drosophila clone 8 (Cl8) cells
Reagent: long dsRNA against Drosophila genes
Measurement: 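Firefly light from a Hedgehog-responsive ptc promoter reporter and Renilla reference light, both read on a plate reader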
Reading the numbers: firefly Hh reporter signal: higher = more ptc reporter light; Renilla reference signal: higher = more Renilla control light
Hit rule: 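Hit when the z-score averaged over two replicates is under -2 or over +3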
Calls: active = hit: reporter lowered or raised; inactive = not a hit
The screen tested about 21,000 reagents; shown is an unselected part of those with a known target gene and a result. Over the whole deposit, 503 (2.4%) were called active. 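Raw plate light values, not normalised; calls rest on replicate z-scores that were not deposited; hits include reporter decreases as well as increases.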 A plus sign joins genes that one reagent is predicted to hit. The record does not give: the amount of reagent, the time to read-out.

How did the screen score CG15506 [SID104194839]?
firefly Hh reporter signal, replicate 1: 76637; firefly Hh reporter signal, replicate 2: 83499; Renilla reference signal, replicate 1: 2281; Renilla reference signal, replicate 2: 2407; Call: inactive

Which result is listed for anne [SID104196895]?
firefly Hh reporter signal, replicate 1: 3.04e5; firefly Hh reporter signal, replicate 2: 1.26e5; Renilla reference signal, replicate 1: 16281; Renilla reference signal, replicate 2: 2936; Call: inactive

Which result is listed for Jon25Biii [SID104182907]?
firefly Hh reporter signal, replicate 1: 1.36e5; firefly Hh reporter signal, replicate 2: 58821; Renilla reference signal, replicate 1: 3340; Renilla reference signal, replicate 2: 6259; Call: inactive

With p-cup [SID104199305], how do the results read?
firefly Hh reporter signal, replicate 1: 76924; firefly Hh reporter signal, replicate 2: 2.66e5; Renilla reference signal, replicate 1: 1827; Renilla reference signal, replicate 2: 10088; Call: inactive

How did the screen score fog [SID104200438]?
firefly Hh reporter signal, replicate 1: 73516; firefly Hh reporter signal, replicate 2: 61616; Renilla reference signal, replicate 1: 1431; Renilla reference signal, replicate 2: 1728; Call: inactive

With Tim17b1 [SID104191971], what was measured?
firefly Hh reporter signal, replicate 1: 66176; firefly Hh reporter signal, replicate 2: 1.67e5; Renilla reference signal, replicate 1: 2477; Renilla reference signal, replicate 2: 5080; Call: inactive

With CG3308 [SID104195266], how do the results read?
firefly Hh reporter signal, replicate 1: 1.02e5; firefly Hh reporter signal, replicate 2: 1.14e5; Renilla reference signal, replicate 1: 4387; Renilla reference signal, replicate 2: 4508; Call: inactive

With Ttc30 [SID104182610], how do the results read?
firefly Hh reporter signal, replicate 1: 1.96e5; firefly Hh reporter signal, replicate 2: 80163; Renilla reference signal, replicate 1: 5137; Renilla reference signal, replicate 2: 7751; Call: inactive

How did the screen score aay [SID104191112]?
firefly Hh reporter signal, replicate 1: 99907; firefly Hh reporter signal, replicate 2: 61773; Renilla reference signal, replicate 1: 4357; Renilla reference signal, replicate 2: 2581; Call: inactive

For betaNACtes3 [SID104199975], what was measured?
firefly Hh reporter signal, replicate 1: 80626; firefly Hh reporter signal, replicate 2: 1.86e5; Renilla reference signal, replicate 1: 2225; Renilla reference signal, replicate 2: 8264; Call: inactive

For wbl [SID104187510], how do the results read?
firefly Hh reporter signal, replicate 1: 66848; firefly Hh reporter signal, replicate 2: 46740; Renilla reference signal, replicate 1: 1364; Renilla reference signal, replicate 2: 3616; Call: inactive

How did the screen score CG3091 [SID104198066]?
firefly Hh reporter signal, replicate 1: 95530; firefly Hh reporter signal, replicate 2: 1.91e5; Renilla reference signal, replicate 1: 1280; Renilla reference signal, replicate 2: 7220; Call: inactive

With upd2 [SID104199761], what was measured?
firefly Hh reporter signal, replicate 1: 1.13e5; firefly Hh reporter signal, replicate 2: 3.36e5; Renilla reference signal, replicate 1: 2582; Renilla reference signal, replicate 2: 14640; Call: inactive

For Pepck1 [SID104187297], what does the deposit list?
firefly Hh reporter signal, replicate 1: 1.62e5; firefly Hh reporter signal, replicate 2: 80348; Renilla reference signal, replicate 1: 4560; Renilla reference signal, replicate 2: 6368; Call: inactive

How did the screen score Syngr [SID104185795]?
firefly Hh reporter signal, replicate 1: 94295; firefly Hh reporter signal, replicate 2: 66224; Renilla reference signal, replicate 1: 2592; Renilla reference signal, replicate 2: 5819; Call: inactive

For CG33340 [SID104194407], how do the results read?
firefly Hh reporter signal, replicate 1: 4.66e5; firefly Hh reporter signal, replicate 2: 94352; Renilla reference signal, replicate 1: 21920; Renilla reference signal, replicate 2: 3157; Call: inactive

With tor [SID104187499], what was measured?
firefly Hh reporter signal, replicate 1: 89402; firefly Hh reporter signal, replicate 2: 64480; Renilla reference signal, replicate 1: 2019; Renilla reference signal, replicate 2: 5024; Call: inactive

With CG14483 [SID104186247], how do the results read?
firefly Hh reporter signal, replicate 1: 1.25e5; firefly Hh reporter signal, replicate 2: 59068; Renilla reference signal, replicate 1: 3344; Renilla reference signal, replicate 2: 4952; Call: inactive

With Ugt35E2 [SID104195875], what was measured?
firefly Hh reporter signal, replicate 1: 43493; firefly Hh reporter signal, replicate 2: 1.15e5; Renilla reference signal, replicate 1: 1660; Renilla reference signal, replicate 2: 3285; Call: inactive

For CR43670 + CR43671 + CR43669 [SID104181346], what was measured?
firefly Hh reporter signal, replicate 1: 1.25e5; firefly Hh reporter signal, replicate 2: 3.48e5; Renilla reference signal, replicate 1: 3568; Renilla reference signal, replicate 2: 15680; Call: inactive

What did the screen give for CR43670 + CR43671 + CR43669 [SID104181348]?
firefly Hh reporter signal, replicate 1: 1.31e5; firefly Hh reporter signal, replicate 2: 2.65e5; Renilla reference signal, replicate 1: 3634; Renilla reference signal, replicate 2: 11798; Call: inactive
